# Assay results: PMC9917560, “Design, Synthesis and Antimicrobial Evaluation of New N-(1-Hydroxy-1,3-dihydrobenzo[c][1,2]oxaborol-6-yl)(hetero)aryl-2-carboxamides as Potential Inhibitors of Mycobacterial Leucyl-tRNA Synthetase” (International Journal of Molecular Sciences, 2023)
# System: HepG2 cell line
# Assay: Cytotoxicity screening, CellTiter 96 assay
# Conditions: SI = IC50 (µM)/MICMtbH37Rv (µM)
row,Structure (SMILES),SI
1,"O=C(Nc1ccc2c(c1)B(O)OC2)c1cnccn1 [Compound 1, N-(1-hydroxy-1,3-dihydrobenzo[c][1,2]oxaborol-6-yl)pyrazine-2-carboxamide]",>20.40
2,"Cc1cnc(C(=O)Nc2ccc3c(c2)B(O)OC3)cn1 [Compound 2, N-(1-hydroxy-1,3-dihydrobenzo[c][1,2]oxaborol-6-yl)-5-methylpyrazine-2-carboxamide]",>10.76
3,"O=C(Nc1ccc2c(c1)B(O)OC2)c1ccccn1 [Compound 10, N-(1-hydroxy-1,3-dihydrobenzo[c][1,2]oxaborol-6-yl)picolinamide]",>20.33
4,"O=C(Nc1ccc2c(c1)B(O)OC2)c1ccc(C(F)(F)F)cn1 [Compound 11, N-(1-hydroxy-1,3-dihydrobenzo[c][1,2]oxaborol-6-yl)-5-(trifluoromethyl)picolinamide]",>10.29
5,"O=C(Nc1ccc2c(c1)B(O)OC2)c1ccc(Cl)cc1 [Compound 14, 4-chloro-N-(1-hydroxy-1,3-dihydrobenzo[c][1,2]oxaborol-6-yl)benzamide]",>23.00
